Here are results for four molecules from paper PMC7060239.

By UniProt entry, the sequences of proteins in these tests, tags left out.
UniProt P13864: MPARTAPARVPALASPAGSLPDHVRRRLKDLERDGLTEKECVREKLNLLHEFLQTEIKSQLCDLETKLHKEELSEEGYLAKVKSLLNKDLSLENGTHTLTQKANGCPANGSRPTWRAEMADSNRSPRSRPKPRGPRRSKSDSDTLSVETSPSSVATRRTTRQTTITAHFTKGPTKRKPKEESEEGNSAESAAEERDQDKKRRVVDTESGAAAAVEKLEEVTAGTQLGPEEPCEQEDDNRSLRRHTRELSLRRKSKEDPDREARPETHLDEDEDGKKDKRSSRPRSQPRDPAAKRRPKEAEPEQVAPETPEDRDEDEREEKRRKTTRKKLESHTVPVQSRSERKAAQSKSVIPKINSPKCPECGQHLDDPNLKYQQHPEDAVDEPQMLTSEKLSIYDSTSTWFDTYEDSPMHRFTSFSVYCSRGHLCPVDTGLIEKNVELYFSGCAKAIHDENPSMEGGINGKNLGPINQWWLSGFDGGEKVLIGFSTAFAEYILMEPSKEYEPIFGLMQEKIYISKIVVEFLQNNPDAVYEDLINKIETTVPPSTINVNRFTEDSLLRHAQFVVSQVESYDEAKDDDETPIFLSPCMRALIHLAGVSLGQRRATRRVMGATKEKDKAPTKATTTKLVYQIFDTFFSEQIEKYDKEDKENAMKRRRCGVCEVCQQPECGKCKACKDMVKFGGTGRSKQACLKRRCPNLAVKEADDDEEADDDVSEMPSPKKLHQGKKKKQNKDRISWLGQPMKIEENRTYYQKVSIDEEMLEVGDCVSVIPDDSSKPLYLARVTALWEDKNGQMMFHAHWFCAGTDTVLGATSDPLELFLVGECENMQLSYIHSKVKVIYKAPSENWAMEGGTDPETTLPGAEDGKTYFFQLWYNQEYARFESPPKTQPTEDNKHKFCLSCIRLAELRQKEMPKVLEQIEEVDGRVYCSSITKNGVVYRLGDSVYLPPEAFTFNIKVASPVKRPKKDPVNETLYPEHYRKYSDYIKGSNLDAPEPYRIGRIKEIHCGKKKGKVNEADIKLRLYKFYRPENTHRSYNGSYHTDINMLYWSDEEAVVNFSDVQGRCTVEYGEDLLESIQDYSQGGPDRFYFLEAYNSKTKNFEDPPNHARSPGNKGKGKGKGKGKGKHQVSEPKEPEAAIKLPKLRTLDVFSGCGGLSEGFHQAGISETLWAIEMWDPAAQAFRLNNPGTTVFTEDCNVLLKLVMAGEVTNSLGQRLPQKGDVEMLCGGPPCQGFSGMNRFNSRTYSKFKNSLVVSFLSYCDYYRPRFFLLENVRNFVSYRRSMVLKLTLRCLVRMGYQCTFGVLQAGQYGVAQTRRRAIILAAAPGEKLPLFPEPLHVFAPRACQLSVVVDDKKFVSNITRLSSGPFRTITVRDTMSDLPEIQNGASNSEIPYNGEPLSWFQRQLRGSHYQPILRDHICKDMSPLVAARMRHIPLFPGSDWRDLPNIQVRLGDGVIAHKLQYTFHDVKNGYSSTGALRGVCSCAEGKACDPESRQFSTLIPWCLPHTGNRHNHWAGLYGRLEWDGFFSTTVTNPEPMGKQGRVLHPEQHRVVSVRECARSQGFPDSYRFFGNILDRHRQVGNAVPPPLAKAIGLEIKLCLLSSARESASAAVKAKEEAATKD

Positions count from the first letter of the chain named. Numbers in names are those of the source. Results are given in words; binding and its absence hold for the method and conditions named. For some of these results: Binding seen in cells or lysates may run through a third protein.

The target of assay [1] is endogenous murine DNMT1 (mouse (endogenous in J1 mESCs)) (UniProt P13864). In words: co-IP; endogenous mDNMT1 precipitated with an anti-DNMT1 nanobody (DNMT1-Trap) from whole-cell lysates of mESCs (WT, D1KO, U1KO, K15R, K24R, KRKR); 2 h, 4 °C; immunoblot.
Another assay concerns the target GFP-mDNMT1 (mouse) (UniProt P13864). In words: fluorescent-3-hybrid (F3H) assay; BHK cells with a lacO array; GFP-tagged bait held at the array by GBP-LacI, mCherry-tagged prey; fixed 24 h after transfection; confocal microscopy, mCherry/GFP ratio in the spot.

B1: mPAF15 K15R (Paf15 K15R mESCs) (protein, UniProt Q9CQX4 1-110)
chain: MVRTKANYVPGAYRRAVASQAPRKVLGSSTFVTNSSSSSRKAENKYAGGNPVCVRPTPKWQKGIGEFFRLSPKESKKENQAPEEAGTSGLGKAKRKACPLQPDHRDDENE
B1: the binding result in assay [1] is listed as “no binding”.

B2: mPAF15 K15R/K24R (Paf15 KRKR mESCs) (protein, UniProt Q9CQX4 1-110)
chain: B1 chain with K24R
For the molecule B2, the binding entry in assay [1] was “no binding”.

B3: mCherry-mPAF15 K15R/K24R double mutant (protein, UniProt Q9CQX4 1-110)
chain: B1 chain with K24R
Take B3: the binding entry with GFP-mDNMT1 (mouse) is given as “no binding”.

B4: mPAF15 K24R (Paf15 K24R mESCs) (protein, UniProt Q9CQX4 1-110)
chain: B1 chain with R15K, K24R
In the case of B4, the binding result in assay [1] is “no binding”.
